Measurements as given in PubChem BioAssay AID493014 (National Center for Advancing Translational Sciences (NCATS), 2011).
Among all 340,000 compounds or so, about 170 (0.05%) were called active. This list was built around the results that the source calls inconclusive (neither active nor inactive); the mix of calls is not that of the screen. The call rests on the fitted dose curve; in most records, active means well fitted inhibition curve with a large enough effect in the signal ratio, with a control signal flat (not every such curve was filed as active); inconclusive means small, poorly fitted or top-dose-only effect, or effect the other way, or a change in a side signal; inactive means flat fitted curve, though single readings scatter; the % refers to the signal ratio. Potencies beside an inconclusive call are fits to weak or partial responses and may not hold up.

Experiment: qHTS Assay to Find Inhibitors of Chronic Active B-Cell Receptor Signaling;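 on activity change, negative = inhibition: plate controls were basal doxycycline-induced cells for no effect and cells given 10 µM MG132 for full effect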
Conditions: ABC-DLBCL IkBa-CBG/CBR reporter, luminescence ratio (green luciferase fused to IkBa over red control in TMD8 lymphoma cells), 4 h; activity change, negative = inhibition: at 46.1 µM (top of the series)
Method in brief: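 Compounds up to 46 uM were incubated four hours with TMD8 cells whose green CBG68 luciferase is fused to IkappaBalpha; red CBR luminescence normalised the signal, and concentration-effect curves were fitted to fusion, red and ratio data.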
Potency means the concentration at half of the fitted maximal effect.

SMILES	activity change, negative = inhibition	Potency
Cc1ccc(-n2cc(CN(C)CCc3cn[nH]c3)c(-c3cccc(C)c3)n2)cc1	inconclusive: 2.71%	
Cc1cc(=O)[nH]c(N=N/C(=N/Nc2ccc(O)cc2)c2ccccc2)n1	inconclusive: 45.6%	
C=CCn1c(COc2cccc3ccc(C)nc23)nnc1SCC(=O)OC	inactive	
O=C(Nc1ccccc1N1CCCC1)c1cc(S(=O)(=O)N2CCOCC2)ccc1Cl	inactive	
Cc1nc2nc(-c3cccs3)cn2nc1C	inactive	
Cc1nc(SCC(=O)N(CC(C)C)C2CCS(=O)(=O)C2)c2ccccc2n1 (configuration not stated)		inconclusive: 29.1 µM [falling, single point]
COc1ccc(C(=O)Nc2nnc(SCC(=O)NCC3CCCO3)s2)cc1OC (configuration not stated)	inactive	
CC(c1ccccc1)c1nnc(NC(=O)c2ccc3c(c2)OCO3)s1 (configuration not stated)	inactive	
Cc1cccc(NC(=O)/C(C#N)=C/c2cn(CC(=O)NCc3ccco3)c3ccccc23)c1C	inconclusive: 18.2%	
O=C(Nc1cnc2ccccc2c1)N1CCCCC1	inconclusive: -12.3%	
NC(=O)C1CCN(c2nc(-c3ccc(Br)cc3)cs2)CC1	inconclusive: -21.7%	
CCc1ccn2cc(-c3ccc4c(c3)OCO4)nc2c1		inconclusive: 35.5 µM [rising, single point]
CSc1ccccc1NC(=O)c1ccc(Cl)s1	inconclusive: 7.6%	
O=C(CN1C(=O)NC2(CCc3ccccc32)C1=O)NCC(=O)Nc1ccc(F)cc1 (configuration not stated)	inconclusive: 7.02%	
CCSc1nc(=S)cc(C)[nH]1	inconclusive: -2.52%	
Cc1c(C(=O)N2CCOCC2)sc(NC(=O)CCl)c1C#N	inactive	
O=C(Cc1ccccc1)N/N=C/c1cccnc1	inactive	
CC(=O)c1ccc(NC(=O)c2ccn[nH]2)cc1	inactive	
O=C(O)c1cc2cc(OCc3ccccc3)ccc2[nH]1	inactive	
CSc1nc(N)n2nc(-c3ccc(Cl)cc3)cc2n1		inconclusive: 2.82 µM [falling, full curve, poor fit]
C=CCNC(=O)/C(C#N)=C/c1ccccc1OCc1ccc(C(=O)OC)cc1		inconclusive: 25.9 µM [cytotoxic, partial curve]
CCCn1nnnc1SCC(=O)N1CCOCC1	inconclusive: 4.7%	

SMILES	activity change, negative = inhibition	Potency
Cc1ccc([N+](=O)[O-])cc1NC(=O)c1ccc(-c2ccccc2)cc1	inconclusive: -7.19%	
Cc1ccc(-c2cc(-c3ccccc3)nc(NN)n2)cc1	inconclusive: -9.92%	
COc1cc(-c2noc(C)c2C#CC2(N)CCCCC2)cc(OC)c1OC	inconclusive: 0.322%	
CCOc1ccc(-n2c(SCC(=O)Nc3ccccc3CC)nc3n[nH]c(C)c3c2=N)cc1		inconclusive: 6.31 µM [falling, single point]
O=C(CSc1nc(O)c(C2CCCCC2)c(=O)[nH]1)NCC1CCCO1 (configuration not stated)		inconclusive: 25.1 µM [falling, single point]
COc1ccc(C2=C(C#N)C(=O)OC2)cc1	inconclusive: 19.1%	
CC1CN(CCCCSc2ccccc2)CC(C)O1 (configuration not stated)	inconclusive: 2.89%	
CC(C)(C)C(=O)Nc1nnc(Cc2ccccc2)s1	inactive	
COC(=O)c1ccc2c(c1)N(C)C(=O)CS2	inconclusive: -18.7%	
S=c1[nH]nc(/C=C/c2ccccc2)o1		inconclusive: 35.5 µM [falling, single point]
O=C(NNc1nc(-c2ccccc2)cs1)c1cccs1		inconclusive: 17.8 µM [falling, partial curve]
CC(=O)Nc1ccc(S(=O)(=O)NCCC(=O)OCc2nnc(-c3ccccc3)o2)cc1	inconclusive: 5.35%	
CCCCc1cc(=O)oc2cc(C)cc(OCC(=O)NCc3ccccn3)c12	inconclusive: -8.98%	
CSCCC(NC(=O)c1ccco1)C(=O)Nc1cc(C)ccn1 (configuration not stated)	inconclusive: 8.4%	
COc1cccc(C(=O)NCC(c2cccs2)N2CCOCC2)c1 (configuration not stated)	inconclusive: -2.98%	
CN(C)c1nc(Oc2ccc(OCCOc3ccccc3)nn2)nc(N(C)C)n1	inactive	
CC1CCCN(c2sc(S(C)(=O)=O)nc2S(=O)(=O)c2ccc(Cl)cc2)C1 (configuration not stated)	inconclusive: -6.83%	
Clc1c(CSc2nc3ccccc3o2)nc2ccccn12	inconclusive: 3.27%	
CCCc1nn(C)c2c(=O)[nH]c(-c3cc(S(=O)(=O)N4CCN(C)CC4)ccc3OCC)nc12	inconclusive: 24.1%	
CC(C)c1ccc(/C=C2\SC(=S)N(CCC(=O)N3CCCCC3CCO)C2=O)cc1 (configuration not stated)		inconclusive: 8.91 µM [rising, partial curve, poor fit]
COc1ccc(CCC(C)N2CCc3ccccc3C2)cc1 (configuration not stated)	inconclusive: 7.71%	
Cc1cccn2c(=O)c3cc(C(=O)NC4CCCCCC4)sc3nc12	inconclusive: 3.05%	

SMILES	activity change, negative = inhibition	Potency
O=[N+]([O-])c1cc(C2Nc3cccc4cccc(c34)N2)ccc1Cl	inactive	
CC(=O)Nc1ccc(C(=O)CN2C(=O)NC3(CCOc4ccccc43)C2=O)c(F)c1 (configuration not stated)	inconclusive: -0.879%	
CCC(=O)Nc1ccc(C(=O)OCc2ccccc2)cc1	inconclusive: 7.33%	
COc1cccc(C(=O)Nc2ccc(N3CCN(C(=O)c4ccco4)CC3)cc2)c1		inconclusive: 28.2 µM [falling, single point]
O=C(c1ccc2c(=O)n(Cc3ccc(Cl)cc3)c(=S)[nH]c2c1)N1CCOCC1	inconclusive: 6.39%	
CC(=NNC(=O)c1ccc(NS(=O)(=O)c2cccs2)cc1)c1ccc(OCC(N)=O)cc1		inconclusive: 25.9 µM [falling, single point]
CCOc1ccc(NC(=S)N2CCCN(Cc3cccc(Cl)c3)C2)cc1	inconclusive: -17.2%	
CCOc1ncccc1C(=O)NCCc1c[nH]c2ccccc12	inconclusive: 1.75%	
COc1ccc(OC)c(NC(=O)c2ccc(-c3csc(C)n3)cc2)c1	inconclusive: -29.8%	
COc1cc(O)c(C(=O)/C=C/c2ccccc2)c(OC)c1	inconclusive: -7.19%	
Cc1csc(=NC(=O)c2ccccc2)n1C	inconclusive: -11.6%	
CN1CCN(c2cc(C(F)(F)F)nc3ccc(F)cc23)CC1	inactive	
Cc1ccc2c(N)c(C#N)sc2n1	inconclusive: 6.47%	
Cc1ccsc1C(C(=O)NC(C)(C)C)N(C(=O)c1csnn1)c1ccccc1 (configuration not stated)	inactive	
N/C(Cc1cccc2ccccc12)=N\OC(=O)COc1ccccc1	inconclusive: 5.72%	
CCCN1C(=O)CN(C2CCCCCC2)C(=O)C1c1ccc(OCC)c(OC)c1 (configuration not stated)	inactive	
CN(Cc1cccs1)c1nc(-c2cccnc2)nc2ccccc12	inactive	
CC1(C)C(=O)OC(c2cccn2-c2cccc([N+](=O)[O-])c2)C2(CCCCC2)C1=O (configuration not stated)	inconclusive: 22%	
COc1ccc(OC)c(-c2cc(C3CCN(c4cc(Cl)nc(N)n4)CC3)[nH]n2)c1		inconclusive: 20 µM [falling, partial curve]
CN(Cc1ccc(F)cc1)C(=O)c1cccc(S(=O)(=O)NCc2ccccc2)c1		inconclusive: 0.103 µM [rising, full curve, poor fit]
Cc1ccsc1C(=O)Nc1ccc(C(=O)O)cc1		inconclusive: 23.1 µM [falling, partial curve]
Cc1ccc(S(=O)(=O)N2CC=C(C(=O)NCCC(C)C)CC2)cc1	inconclusive: -2.74%	

2 compounds picked at random from those above:
SMILES	activity change, negative = inhibition	Potency
Cc1nc2nc(-c3cccs3)cn2nc1C	inactive	
COc1ccc(OC)c(NC(=O)c2ccc(-c3csc(C)n3)cc2)c1	inconclusive: -29.8%	

Continuation.

SMILES	activity change, negative = inhibition	Potency
O=C(NN=C1CCCCCC1)c1ccc(Cl)s1	inconclusive: -7.58%	
Cc1cc(Nc2ccc([N+](=O)[O-])cc2)nc2ccccc12	inconclusive: 8.59%	
Cc1cc(C)nc(SCc2nc(N)nc(-c3ccccc3O)n2)n1	inconclusive: 0.767%	
CCOC(=O)N1CCN(S(=O)(=O)c2ccc(OC)cc2)CC1	inactive	
Cc1cccn2c(=O)c(/C=C3\SC(=S)NC3=O)c(NCCCN3CCOCC3)nc12	inconclusive: 13.8%	
O=C(/C=C/c1ccccc1)NC(N1CCOCC1)C(Cl)(Cl)Cl (configuration not stated)		inconclusive: 28.2 µM [falling, single point]
Cc1oc(-c2ccc(Cl)cc2)nc1CN1CCCC(C(=O)NCCCN2CCCC2=O)C1 (configuration not stated)	inactive	
Cc1cc(C)nc(S/C=C/C(=O)c2ccccc2)n1	inconclusive: 29.2%	
CCOC(=O)c1c(CSC(=N)N)n(-c2ccc(C)cc2)c2cc(Br)c(OC(C)=O)cc12	inconclusive: 16%	
O=C(/C=C/c1ccc(Cl)cc1)NC(=S)Nc1ccccc1C(=O)O		inconclusive: 35.5 µM [falling, single point]
CN1CCc2nc(SCC(=O)Nc3ccc(OC(F)(F)F)cc3)c(C#N)c(-c3cccs3)c2C1	inconclusive: 3.63%	
C=CCC(NC(C)c1ccccc1)c1ccco1 (configuration not stated)	inconclusive: -9.42%	
Cc1ccc(C2Nc3ccccc3NC3=C2C(=O)OC(C)C3)cc1 (configuration not stated)	inactive	
CC(=O)c1sc(NC(=O)C2CSC3(C)CCC(=O)N23)nc1-c1ccccc1 (configuration not stated)	inconclusive: 22.9%	
O=C(Nc1ccc2ccccc2c1)/C(=C\c1ccc2c(c1)OCO2)NC(=O)c1ccco1	inconclusive: 9.14%	
CCc1c(C#N)c(N)nc(SCC(=O)OCc2ccccc2)c1C#N	inconclusive: 1.97%	
COC(=O)C1(C)NC(c2ccc(O)cc2)C2C(=O)N(c3ccc(C)cc3)C(=O)C21 (configuration not stated)	inactive	
Cc1cc(C)cc(NC(=O)CSc2ccc(-c3ccccn3)nn2)c1	inconclusive: 7.64%	
Cc1cccc(NC(=O)c2cc([N+](=O)[O-])ccc2NC2CCCCC2)c1	inconclusive: 0.968%	
Cc1ccc(C(=O)/C=C/c2c(C)nn(-c3ccccc3)c2Cl)cc1	inconclusive: 8.01%	
O=C(C1CCN(CC2CC=CCC2)CC1)N(CCc1ccccc1)Cc1ccccc1 (configuration not stated)	inactive	

Structures shown so far with a nitro group on carbon (five):
SMILES	activity change, negative = inhibition	Potency
Cc1ccc([N+](=O)[O-])cc1NC(=O)c1ccc(-c2ccccc2)cc1	inconclusive: -7.19%	
O=[N+]([O-])c1cc(C2Nc3cccc4cccc(c34)N2)ccc1Cl	inactive	
CC1(C)C(=O)OC(c2cccn2-c2cccc([N+](=O)[O-])c2)C2(CCCCC2)C1=O (configuration not stated)	inconclusive: 22%	
Cc1cc(Nc2ccc([N+](=O)[O-])cc2)nc2ccccc12	inconclusive: 8.59%	
Cc1cccc(NC(=O)c2cc([N+](=O)[O-])ccc2NC2CCCCC2)c1	inconclusive: 0.968%	
